Paper PMC3908380
No constants are given. Whether binding was seen depends on the method and setting. In cells and extracts the contact can be indirect. Here binding means that the protein was enriched with, or labelled near, the bait; the list need not be complete.

Experiments:
[1] = biological target: T1, InR (Drosophila Melanogaster) (UniProt P09208); assay: affinity purification with mass spectrometry; TAP/MS of the Drosophila Insulin pathway dataset: TAP-tagged bait pulled down via its tag from cell lysates, peptides identified by MS, spectral counts in replicates; time points 0, 10 and 30 minutes; negative control purifications; bait-prey pairs scored as significant by PPIRank (and SAINT)
T1 sequence: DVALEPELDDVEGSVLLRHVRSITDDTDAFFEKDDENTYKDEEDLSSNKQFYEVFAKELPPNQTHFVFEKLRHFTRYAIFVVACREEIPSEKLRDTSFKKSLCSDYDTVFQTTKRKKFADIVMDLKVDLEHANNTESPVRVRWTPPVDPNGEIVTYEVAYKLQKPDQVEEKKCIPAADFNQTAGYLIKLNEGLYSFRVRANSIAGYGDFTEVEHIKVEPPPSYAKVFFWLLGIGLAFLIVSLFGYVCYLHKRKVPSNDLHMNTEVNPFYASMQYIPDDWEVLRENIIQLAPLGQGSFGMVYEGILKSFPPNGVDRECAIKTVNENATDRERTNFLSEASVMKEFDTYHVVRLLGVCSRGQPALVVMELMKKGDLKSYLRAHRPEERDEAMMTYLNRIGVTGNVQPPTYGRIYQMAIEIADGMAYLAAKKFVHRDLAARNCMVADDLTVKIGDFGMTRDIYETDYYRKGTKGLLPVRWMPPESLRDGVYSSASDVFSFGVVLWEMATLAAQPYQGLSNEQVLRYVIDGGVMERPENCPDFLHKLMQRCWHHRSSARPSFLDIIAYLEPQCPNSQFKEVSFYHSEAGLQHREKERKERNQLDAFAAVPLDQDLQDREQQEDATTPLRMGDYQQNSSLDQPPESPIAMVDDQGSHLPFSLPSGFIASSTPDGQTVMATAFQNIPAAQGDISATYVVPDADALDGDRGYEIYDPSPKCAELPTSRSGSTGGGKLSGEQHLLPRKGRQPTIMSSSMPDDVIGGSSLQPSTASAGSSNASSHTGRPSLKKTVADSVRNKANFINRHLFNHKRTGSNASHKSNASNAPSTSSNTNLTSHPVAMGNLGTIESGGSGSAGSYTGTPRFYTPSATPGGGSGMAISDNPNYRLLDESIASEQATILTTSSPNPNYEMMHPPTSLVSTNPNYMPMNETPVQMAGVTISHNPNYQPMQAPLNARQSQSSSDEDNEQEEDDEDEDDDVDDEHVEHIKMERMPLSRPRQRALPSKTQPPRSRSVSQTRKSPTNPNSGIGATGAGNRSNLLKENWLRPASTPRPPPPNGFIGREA

[2] = biological target: Pi3K21B (Drosophila Melanogaster); assay: as above

binding [1]: binds
binding [2]: binds
B1: chico (protein, UniProt Q9XTN2 1-968)
chain: MASISDDGMALSGYLKKLKTMKKKFFVLYEETSTSAARLEYYDTEKKFLQRAEPKRVIYLKNCFNINRRLDTKHRFVIVLSSRDGGFGIVLENENDLRKWLDKLLVLQRNIANSNGTAHSPYDHVWQVVIQKKGISEKVGITGTYHCCLTSKSLTFVCIGPEKTPNGEDRVASIEILLTTIRRCGHASPQCIFYVELGRQSVLGSGDLWMETDNAAIATNMHNTILSAMSAKTESNTNLINVYQNRPDLSHEPMRKRSSSANEASKPINVNVIQNSQNSLELRSCSSPHNYGFGRERCDSLPTRNGTLSESSNQTYFGSNHGLRSNTISGIRPHSTNKHSNSPTFTMPLRCSESEESSISVDESDDNGSFSHYRLNTRSSETAIPEENIDDFASAELFSKVTEQNVSDENYIPMNPVNPTDAIHEKEKADMQRLEDASLHFNFPEHASEKLAKDFDLDSDNQCCRPIRAYSIGNKVEHLKFNKRLGHLNDTGQNPNRVRAYSVGSKSKIPRCDLQRVVLVEDNKHEFTANRSQSSITKEGTSYGSSANRQKKSTSAPLLSLKNQINSDRMSDLMEIDFSQATNLEKQKFIKNNEIPKYIENVFPKAPRTDSSSLTLHATSQKDIFNGTKLNNTAITSEDGYLEMKPVGNGYTPSSNCLPMKVEKLKLSDYQTAPPLTATAAPVHDLNKISTYNISAEKWREQPSRSEEKKSNSPLNDNTFSSKPTNVESTSKSHDVHSANQIDCEKVCAQSSDKLNNHLADKIVENNNLDIGGHEEKKLVHSISSEDYTQIKDKSNDFTKFNEAGYKILQIKSDSSLISSKLYQKGIHKDNLERSQRLTESVNTIPDNATATAVSSSSLTKFNINSAKPAAAADSRSTGTDPSTPQNILQIKDLNFPSRSSSRISQPELHYASLDLPHCSGQNPAKYLKRGSRESPPVSACPEDGNTYAKIDFDQSDSSSSSSNIFNT
